Test results from article PMC9472757.
These are yes or no findings as the source states them, for the method shown. In cells and extracts the contact can be indirect. Here binding means that the protein was enriched with, or labelled near, the bait; the list need not be complete. Tags and fused reporters may be left off the sequences shown.

Protein sequences, listed by entry. Tags and fused reporters are not part of them.
UniProt O95071: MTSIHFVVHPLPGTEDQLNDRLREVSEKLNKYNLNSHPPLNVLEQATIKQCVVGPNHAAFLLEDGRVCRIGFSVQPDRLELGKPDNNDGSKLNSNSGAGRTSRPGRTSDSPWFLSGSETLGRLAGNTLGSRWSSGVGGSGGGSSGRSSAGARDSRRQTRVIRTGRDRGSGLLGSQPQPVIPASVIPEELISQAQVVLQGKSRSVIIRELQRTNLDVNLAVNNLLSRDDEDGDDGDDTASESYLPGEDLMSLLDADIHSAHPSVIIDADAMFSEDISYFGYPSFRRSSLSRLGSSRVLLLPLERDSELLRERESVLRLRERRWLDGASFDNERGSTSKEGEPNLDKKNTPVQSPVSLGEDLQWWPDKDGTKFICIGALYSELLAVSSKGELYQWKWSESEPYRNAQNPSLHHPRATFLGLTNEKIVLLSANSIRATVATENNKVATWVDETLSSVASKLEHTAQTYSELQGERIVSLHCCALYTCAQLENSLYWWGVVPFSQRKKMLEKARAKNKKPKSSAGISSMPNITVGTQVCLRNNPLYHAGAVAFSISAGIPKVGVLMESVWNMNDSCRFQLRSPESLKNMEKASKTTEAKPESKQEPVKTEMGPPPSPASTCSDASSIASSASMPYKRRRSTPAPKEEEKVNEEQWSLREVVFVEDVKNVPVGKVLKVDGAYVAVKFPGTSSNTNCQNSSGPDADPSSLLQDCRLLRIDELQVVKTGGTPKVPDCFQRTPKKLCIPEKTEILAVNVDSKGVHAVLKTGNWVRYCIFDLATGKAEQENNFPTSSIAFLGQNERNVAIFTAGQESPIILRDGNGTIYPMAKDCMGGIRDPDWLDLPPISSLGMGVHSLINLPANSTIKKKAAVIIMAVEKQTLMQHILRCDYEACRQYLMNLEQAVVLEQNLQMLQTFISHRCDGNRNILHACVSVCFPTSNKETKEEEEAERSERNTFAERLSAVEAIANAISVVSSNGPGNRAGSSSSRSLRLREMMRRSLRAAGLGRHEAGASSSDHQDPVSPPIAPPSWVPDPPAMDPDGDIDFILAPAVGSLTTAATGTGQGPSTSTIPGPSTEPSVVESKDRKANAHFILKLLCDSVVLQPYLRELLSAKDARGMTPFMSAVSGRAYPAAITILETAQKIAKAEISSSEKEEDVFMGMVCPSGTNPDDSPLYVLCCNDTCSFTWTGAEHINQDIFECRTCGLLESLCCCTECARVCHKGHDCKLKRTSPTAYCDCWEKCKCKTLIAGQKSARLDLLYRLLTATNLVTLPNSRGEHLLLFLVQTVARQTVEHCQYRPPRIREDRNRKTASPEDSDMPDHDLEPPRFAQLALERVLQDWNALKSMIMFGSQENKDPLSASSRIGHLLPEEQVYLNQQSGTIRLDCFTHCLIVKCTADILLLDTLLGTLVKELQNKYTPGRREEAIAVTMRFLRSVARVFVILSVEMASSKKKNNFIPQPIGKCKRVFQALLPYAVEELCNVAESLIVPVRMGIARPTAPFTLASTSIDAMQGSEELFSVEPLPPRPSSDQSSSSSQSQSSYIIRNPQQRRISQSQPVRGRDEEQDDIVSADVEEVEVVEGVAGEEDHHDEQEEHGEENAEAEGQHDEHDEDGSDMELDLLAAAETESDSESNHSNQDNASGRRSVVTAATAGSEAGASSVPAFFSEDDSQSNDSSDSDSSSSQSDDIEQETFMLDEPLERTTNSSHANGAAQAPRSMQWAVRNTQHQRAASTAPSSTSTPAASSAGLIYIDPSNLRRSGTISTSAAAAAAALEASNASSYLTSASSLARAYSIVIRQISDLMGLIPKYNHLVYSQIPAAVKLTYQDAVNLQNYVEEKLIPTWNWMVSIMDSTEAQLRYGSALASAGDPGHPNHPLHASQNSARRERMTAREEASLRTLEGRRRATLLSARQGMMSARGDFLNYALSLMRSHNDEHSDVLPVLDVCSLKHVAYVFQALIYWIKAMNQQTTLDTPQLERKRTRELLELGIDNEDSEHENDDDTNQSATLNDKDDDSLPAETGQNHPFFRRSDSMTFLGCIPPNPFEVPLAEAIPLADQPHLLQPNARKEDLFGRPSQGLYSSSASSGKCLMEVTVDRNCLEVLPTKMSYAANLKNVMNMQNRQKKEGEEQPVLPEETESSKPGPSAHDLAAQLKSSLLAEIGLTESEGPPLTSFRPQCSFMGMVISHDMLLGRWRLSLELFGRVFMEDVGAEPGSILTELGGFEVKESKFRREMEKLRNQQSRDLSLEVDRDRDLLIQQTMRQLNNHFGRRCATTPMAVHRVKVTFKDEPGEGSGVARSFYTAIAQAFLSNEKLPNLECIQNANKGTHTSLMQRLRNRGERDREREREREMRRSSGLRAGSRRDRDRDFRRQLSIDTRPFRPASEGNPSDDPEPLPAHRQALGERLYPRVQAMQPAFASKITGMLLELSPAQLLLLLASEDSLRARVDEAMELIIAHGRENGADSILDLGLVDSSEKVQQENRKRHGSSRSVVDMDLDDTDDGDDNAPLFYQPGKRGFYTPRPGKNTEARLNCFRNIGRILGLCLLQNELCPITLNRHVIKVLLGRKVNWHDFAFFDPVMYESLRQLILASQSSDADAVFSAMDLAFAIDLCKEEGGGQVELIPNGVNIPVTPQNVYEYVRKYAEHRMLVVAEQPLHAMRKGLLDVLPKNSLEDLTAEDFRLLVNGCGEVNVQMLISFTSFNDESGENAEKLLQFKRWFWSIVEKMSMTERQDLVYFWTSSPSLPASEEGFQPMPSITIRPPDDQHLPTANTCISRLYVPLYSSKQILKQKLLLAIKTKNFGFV

Target: T1, Flag-ORF4b (MERS-CoV ORF4b protein, Flag-tagged) (MERS-CoV) (UniProt K9N643)
T1 sequence: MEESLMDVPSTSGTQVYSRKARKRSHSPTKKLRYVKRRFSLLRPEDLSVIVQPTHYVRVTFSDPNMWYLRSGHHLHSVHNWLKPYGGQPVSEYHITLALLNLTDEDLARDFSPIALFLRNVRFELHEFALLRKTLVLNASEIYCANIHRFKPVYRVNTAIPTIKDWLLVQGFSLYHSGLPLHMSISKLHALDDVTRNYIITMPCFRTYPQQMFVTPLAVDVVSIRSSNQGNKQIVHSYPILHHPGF
Test: affinity purification with mass spectrometry

**Q.** “UBR5 (ubiquitin protein ligase E3 component N-recognin 5), endogenous (from UniProt O95071 1-2799) (enzyme)” was tested. Which binding did it give?
**A.** Its binding is “binds”.
